Data: article PMC5369006
These are yes or no findings as the source states them, for the method shown. A result given as binding can be weak or reduced; the word gives no strength.

Biological target: T1, PaATG8 (amino acids 1 to 115), yeast two-hybrid bait (Podospora anserina) (UniProt Q8J282)
T1 sequence: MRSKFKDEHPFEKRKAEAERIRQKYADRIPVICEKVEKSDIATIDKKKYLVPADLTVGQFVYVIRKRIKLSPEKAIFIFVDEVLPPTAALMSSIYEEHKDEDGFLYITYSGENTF
Test: two-hybrid; library screen: LexA-PaATG8 (1-115) bait in pLexA-DIR, P. anserina cDNA library (rapamycin-treated cultures) in pGAD-HA as prey, yeast NMY32; growth on medium lacking tryptophan, leucine and histidine and quantitative beta-galactosidase assay

binding	Substance
binds	Pa_2_2450, prey of the cDNA library (Podospora anserina)
binds	Pa_4_2219, prey of the cDNA library (Podospora anserina)
